Measurements published in the supplement of paper PMC8728848.
Some of the results follow.

Assays:
Test in all cases: glycan array binding signal (z-score within array); higher = stronger binding
Details in all cases: glycan notation: IUPAC condensed, linker removed
[1] = molecular target: Fuc(a1-2)Gal(b1-4)GlcNAc(b1-3)Gal(b1-4)GlcNAc(b1-3)Gal(b1-4)GlcNAc
Method in brief: (§1)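 The binding signal is a Z-score computed within each array and averaged over linkers. Arrays of the same protein sequence at different concentrations or buffers were also averaged together. Data originate from 3228 arrays in the Consortium for Functional Glycomics database, kept only where the protein sequence was available.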

[2] = molecular target: Fuc(a1-2)Gal(b1-4)GlcNAc(b1-3)GalNAc
Method in brief: as §1

[3] = molecular target: Fuc(a1-2)Gal(b1-4)GlcNAc(b1-3)[Fuc(a1-2)Gal(b1-4)GlcNAc(b1-6)]GalNAc
Method in brief: as §1

[4] = molecular target: Fuc(a1-2)Gal(b1-4)GlcNAc(b1-3)[Fuc(a1-3)[Gal(b1-4)]GlcNAc(b1-6)]Gal(b1-4)Glc
Method in brief: as §1

[5] = molecular target: Fuc(a1-2)Gal(b1-4)GlcNAc(b1-6)GalNAc
Method in brief: as §1

[6] = molecular target: Fuc(a1-2)Gal(b1-4)GlcNAc6S
Method in brief: as §1

[7] = molecular target: Fuc(a1-2)Gal(b1-4)[Fuc(a1-3)]GlcNAc
Method in brief: as §1

[8] = molecular target: Fuc(a1-2)Gal(b1-4)[Fuc(a1-3)]GlcNAc(b1-2)Man(a1-3)[Fuc(a1-2)Gal(b1-4)[Fuc(a1-3)]GlcNAc(b1-2)Man(a1-6)]Man(b1-4)GlcNAc(b1-4)[Fuc(a1-6)]GlcNAc
Method in brief: as §1

[9] = molecular target: Fuc(a1-2)Gal(b1-4)[Fuc(a1-3)]GlcNAc(b1-2)[Fuc(a1-2)Gal(b1-4)[Fuc(a1-3)]GlcNAc(b1-4)]Man(a1-3)[Fuc(a1-2)Gal(b1-4)[Fuc(a1-3)]GlcNAc(b1-2)Man(a1-6)]Man(b1-4)GlcNAc(b1-4)GlcNAc
Method in brief: as §1

[10] = molecular target: Fuc(a1-2)Gal(b1-4)[Fuc(a1-3)]GlcNAc(b1-3)Gal(b1-4)[Fuc(a1-3)]GlcNAc
Method in brief: as §1

[11] = molecular target: Fuc(a1-2)Gal(b1-4)[Fuc(a1-3)]GlcNAc(b1-3)Gal(b1-4)[Fuc(a1-3)]GlcNAc(b1-3)Gal(b1-4)[Fuc(a1-3)]GlcNAc
Method in brief: as §1

[12] = molecular target: Fuc(a1-2)Gal(b1-4)[Fuc(a1-3)]GlcNAc(b1-3)GalNAc
Method in brief: as §1

[13] = molecular target: Fuc(a1-2)Gal(b1-4)[Fuc(a1-3)]GlcNAc(b1-3)[Neu5Ac(a2-6)Gal(b1-4)GlcNAc(b1-6)]Gal(b1-4)Glc
Method in brief: as §1

[14] = molecular target: Fuc(a1-2)Gal3S(b1-4)GlcNAc
Method in brief: as §1

[15] = molecular target: Fuc(a1-2)Gal6S(b1-3)GlcNAc
Method in brief: as §1

[16] = molecular target: Fuc(a1-2)Gal6S(b1-3)GlcNAc6S
Method in brief: as §1

[17] = molecular target: Fuc(a1-2)Gal6S(b1-4)Glc
Method in brief: as §1

[18] = molecular target: Fuc(a1-2)Gal6S(b1-4)Glc6S
Method in brief: as §1

[19] = molecular target: Fuc(a1-2)[Gal(a1-3)]Gal
Method in brief: as §1

[20] = molecular target: Fuc(a1-2)[Gal(a1-3)]Gal(b1-3)GalNAc
Method in brief: as §1

[21] = molecular target: Fuc(a1-2)[Gal(a1-3)]Gal(b1-3)GalNAc(b1-3)Gal(a1-4)Gal(b1-4)Glc
Method in brief: as §1

[22] = molecular target: Fuc(a1-2)[Gal(a1-3)]Gal(b1-3)GlcNAc
Method in brief: as §1

[23] = molecular target: Fuc(a1-2)[Gal(a1-3)]Gal(b1-3)GlcNAc(b1-2)Man(a1-3)[Fuc(a1-2)[Gal(a1-3)]Gal(b1-3)GlcNAc(b1-2)Man(a1-6)]Man(b1-4)GlcNAc(b1-4)GlcNAc
Method in brief: as §1

[24] = molecular target: Fuc(a1-2)[Gal(a1-3)]Gal(b1-3)GlcNAc(b1-2)Man(a1-3)[Fuc(a1-2)[Gal(a1-3)]Gal(b1-3)GlcNAc(b1-2)Man(a1-6)]Man(b1-4)GlcNAc(b1-4)[Fuc(a1-6)]GlcNAc
Method in brief: as §1

[25] = molecular target: Fuc(a1-2)[Gal(a1-3)]Gal(b1-3)GlcNAc(b1-3)GalNAc
Method in brief: as §1

[26] = molecular target: Fuc(a1-2)[Gal(a1-3)]Gal(b1-3)GlcNAc(b1-6)GalNAc
Method in brief: as §1

[27] = molecular target: Fuc(a1-2)[Gal(a1-3)]Gal(b1-4)Glc
Method in brief: as §1

[28] = molecular target: Fuc(a1-2)[Gal(a1-3)]Gal(b1-4)GlcNAc
Method in brief: as §1

[29] = molecular target: Fuc(a1-2)[Gal(a1-3)]Gal(b1-4)GlcNAc(b1-2)Man
Method in brief: as §1

[30] = molecular target: Fuc(a1-2)[Gal(a1-3)]Gal(b1-4)GlcNAc(b1-2)Man(a1-3)[Fuc(a1-2)[Gal(a1-3)]Gal(b1-4)GlcNAc(b1-2)Man(a1-6)]Man(b1-4)GlcNAc(b1-4)GlcNAc
Method in brief: as §1

B1: Blon2355mut (Bifidobacterium longum) (protein)
chain: MVQEPTLEWHVIPEPTNVEPLVGTCSLPLSGTVVEQRGADDAEAVFARQLVDDIKRVCGGRWQVASGEVQREVTLRTSPSLDDWSYVLEVSPDGVVITGSGFEGVRDGVQTLRQIIRQIGLTIPCMVIRDRPAFSTRGYYLDVTRGRVPSMAWLKSWVDRLCFYKYNQFQLYIEHTFQFNGLSEVWRGADPLTSSDILELDSYCAARGIELVPSVSTFGHHYTALRTRQLRDLGEFPEDADRPFSLIERMTHHTLNITDERSYEFSTSLIDELMPLFRSRKFNICANETFDLGKGRSKQESAKRGVGAMYADFVERLCRHVDDRGHDVMVWADVALEHPEIIDTLPKNITWLNWQYEPNVDDGTTAALADAGATQMVCPAVWCWNALIPRIDDAWNNITRMARHGRAHDVSGMLVTDWGDFGHVNDPRMSVPGMIFGAQQSWNPDAELSEVDMLSRISTIEYGDHTGSVVGALRGASAKGGFSWSDLVTYLELDDGRGGCNTEIVRVMGCLEAYRNDLPQSGQARLADARVSMLRTLRDSILAGRELNGKLDDAAKDITQLLRVAGDPSSAAVWSLAIDGQRLLNRVGLALLAAHGVVRQDEAGIDAAKLADELECWTEQYSRLWHEVSRQSELARIQHVVWRAADVLRSI
glycan array binding signal (z-score) [1]: -0.644 | glycan array binding signal (z-score) [2]: -0.852 | glycan array binding signal (z-score) [3]: -0.88 | glycan array binding signal (z-score) [4]: -0.912 | glycan array binding signal (z-score) [5]: 1.67 | glycan array binding signal (z-score) [6]: -0.384 | glycan array binding signal (z-score) [7]: -0.777 | glycan array binding signal (z-score) [8]: 0.063 | glycan array binding signal (z-score) [9]: -0.46 | glycan array binding signal (z-score) [10]: -0.858 | glycan array binding signal (z-score) [11]: -0.095 | glycan array binding signal (z-score) [12]: -1.09 | glycan array binding signal (z-score) [13]: -0.434 | glycan array binding signal (z-score) [14]: -0.915 | glycan array binding signal (z-score) [15]: 0.153 | glycan array binding signal (z-score) [16]: 0.631 | glycan array binding signal (z-score) [17]: -0.955 | glycan array binding signal (z-score) [18]: -0.239 | glycan array binding signal (z-score) [19]: 0.418 | glycan array binding signal (z-score) [20]: 1.01 | glycan array binding signal (z-score) [21]: -0.123 | glycan array binding signal (z-score) [22]: 0.442 | glycan array binding signal (z-score) [23]: -0.711 | glycan array binding signal (z-score) [24]: 0.741 | glycan array binding signal (z-score) [25]: -0.235 | glycan array binding signal (z-score) [26]: -1.31 | glycan array binding signal (z-score) [27]: -0.428 | glycan array binding signal (z-score) [28]: -1.23 | glycan array binding signal (z-score) [29]: -0.37 | glycan array binding signal (z-score) [30]: -0.395
